Where a name gives a salt, the structure may show the parent alone. Some of the results follow. Hit calls seldom repeat between salt and free forms of one compound.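 Kinases, fused to nanoluciferase, were expressed in K562 cells; luminescence was measured every 4 h from 2 to 18 h as percent of control (DMSO = 100%, positive control = 0%). A time point is decreased if signal falls significantly (2 sigma). Hits were called by the authors by a rule that is not shown; the count of time points alone does not decide it.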
Assays:
Assay in all cases: number of time points (of 5) at which kinase-Nluc abundance scored as decreased, DMSO-normalised (count); higher = more persistent destabilization
Settings in all cases: K562; 2-18 h
[1] = target: FLT3 (UniProt P36888)
[2] = target: FYN (UniProt P06241)
[3] = target: GSK3A (UniProt P49840)
[4] = target: HER2 (UniProt P04626)
[5] = target: INSRR (UniProt P14616)
[6] = target: IRAK3 (UniProt Q9Y616)
[7] = target: JAK1 (UniProt P23458)
[8] = target: LCK (UniProt P06239)
[9] = target: LIMK1 (UniProt P53667)
[10] = target: LIMK2 (UniProt P53671)
[11] = target: LMTK2 (UniProt Q8IWU2)
[12] = target: LYN (UniProt P07948)
[13] = target: MAP2K1 (UniProt Q02750)
[14] = target: MAP2K2 (UniProt P36507)
[15] = target: MAP4K2 (UniProt Q12851)
[16] = target: MAPK1 (UniProt P28482)
[17] = target: MAPK4 (UniProt P31152)
[18] = target: MAPKAPK2 (UniProt P49137)
[19] = target: MKNK1 (UniProt Q9BUB5)
[20] = target: NTRK2 (UniProt Q16620)

Protein sequences, listed by entry. Tags and fused reporters are not part of them. Lines headed by an entry give the natural chain unless they say otherwise; changes in a name come on top.
UniProt P06241, whole entry, looked up: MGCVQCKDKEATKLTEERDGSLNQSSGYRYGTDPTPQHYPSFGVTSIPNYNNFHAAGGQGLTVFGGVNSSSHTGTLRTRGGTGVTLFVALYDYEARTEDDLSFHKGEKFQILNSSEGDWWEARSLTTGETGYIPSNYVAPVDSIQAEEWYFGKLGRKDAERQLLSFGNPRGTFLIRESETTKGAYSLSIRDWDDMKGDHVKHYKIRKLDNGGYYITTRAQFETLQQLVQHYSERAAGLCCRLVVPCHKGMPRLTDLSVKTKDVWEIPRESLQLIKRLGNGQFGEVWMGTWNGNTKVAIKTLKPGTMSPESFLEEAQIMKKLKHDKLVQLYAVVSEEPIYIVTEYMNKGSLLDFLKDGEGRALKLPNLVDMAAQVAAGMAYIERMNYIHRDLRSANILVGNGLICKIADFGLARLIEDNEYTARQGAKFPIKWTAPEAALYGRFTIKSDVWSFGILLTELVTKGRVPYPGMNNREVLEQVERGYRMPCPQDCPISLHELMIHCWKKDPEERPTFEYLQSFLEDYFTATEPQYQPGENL
UniProt Q9Y616: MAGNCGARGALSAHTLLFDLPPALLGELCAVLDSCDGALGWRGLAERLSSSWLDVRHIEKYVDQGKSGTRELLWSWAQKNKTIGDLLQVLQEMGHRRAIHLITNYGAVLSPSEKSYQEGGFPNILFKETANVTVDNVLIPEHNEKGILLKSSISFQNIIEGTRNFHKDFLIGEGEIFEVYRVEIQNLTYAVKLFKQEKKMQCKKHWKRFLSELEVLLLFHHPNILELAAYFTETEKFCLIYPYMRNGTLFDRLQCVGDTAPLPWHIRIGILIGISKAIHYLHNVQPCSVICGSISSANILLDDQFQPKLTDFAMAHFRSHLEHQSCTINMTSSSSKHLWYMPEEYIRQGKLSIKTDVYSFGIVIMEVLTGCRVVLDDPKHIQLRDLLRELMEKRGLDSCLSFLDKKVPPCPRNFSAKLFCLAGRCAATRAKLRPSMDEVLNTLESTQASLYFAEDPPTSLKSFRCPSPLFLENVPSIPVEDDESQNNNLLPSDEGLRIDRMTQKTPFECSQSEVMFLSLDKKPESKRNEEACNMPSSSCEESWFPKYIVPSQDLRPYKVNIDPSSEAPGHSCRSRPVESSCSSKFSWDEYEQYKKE
UniProt P23458: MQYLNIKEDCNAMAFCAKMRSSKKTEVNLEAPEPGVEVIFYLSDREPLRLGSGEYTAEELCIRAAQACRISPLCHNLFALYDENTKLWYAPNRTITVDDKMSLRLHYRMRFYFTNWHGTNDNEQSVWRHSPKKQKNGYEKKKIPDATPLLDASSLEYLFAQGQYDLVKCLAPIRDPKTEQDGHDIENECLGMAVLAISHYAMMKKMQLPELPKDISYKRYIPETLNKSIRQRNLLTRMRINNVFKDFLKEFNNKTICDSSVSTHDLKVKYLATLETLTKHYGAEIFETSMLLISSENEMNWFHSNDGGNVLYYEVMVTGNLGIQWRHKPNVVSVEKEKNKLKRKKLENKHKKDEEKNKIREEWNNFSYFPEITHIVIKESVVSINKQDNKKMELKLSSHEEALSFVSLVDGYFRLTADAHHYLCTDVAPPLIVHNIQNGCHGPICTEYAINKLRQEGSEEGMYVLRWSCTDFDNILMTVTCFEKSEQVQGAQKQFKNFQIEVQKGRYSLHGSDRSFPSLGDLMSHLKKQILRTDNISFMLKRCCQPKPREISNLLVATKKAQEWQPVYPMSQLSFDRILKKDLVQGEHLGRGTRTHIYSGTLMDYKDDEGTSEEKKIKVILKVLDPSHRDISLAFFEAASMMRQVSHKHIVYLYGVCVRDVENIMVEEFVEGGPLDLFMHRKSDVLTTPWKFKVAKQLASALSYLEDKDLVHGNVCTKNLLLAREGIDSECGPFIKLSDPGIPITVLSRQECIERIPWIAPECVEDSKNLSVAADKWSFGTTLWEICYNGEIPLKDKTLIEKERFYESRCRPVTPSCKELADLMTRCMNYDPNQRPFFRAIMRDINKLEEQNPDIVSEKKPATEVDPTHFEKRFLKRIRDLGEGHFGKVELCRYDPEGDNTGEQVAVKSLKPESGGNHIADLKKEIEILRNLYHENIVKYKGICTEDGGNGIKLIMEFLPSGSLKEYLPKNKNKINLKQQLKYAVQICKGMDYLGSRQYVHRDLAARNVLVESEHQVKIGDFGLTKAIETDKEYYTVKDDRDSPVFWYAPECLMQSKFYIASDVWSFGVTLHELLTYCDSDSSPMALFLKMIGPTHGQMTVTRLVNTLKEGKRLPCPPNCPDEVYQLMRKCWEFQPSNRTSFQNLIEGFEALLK
UniProt P53667: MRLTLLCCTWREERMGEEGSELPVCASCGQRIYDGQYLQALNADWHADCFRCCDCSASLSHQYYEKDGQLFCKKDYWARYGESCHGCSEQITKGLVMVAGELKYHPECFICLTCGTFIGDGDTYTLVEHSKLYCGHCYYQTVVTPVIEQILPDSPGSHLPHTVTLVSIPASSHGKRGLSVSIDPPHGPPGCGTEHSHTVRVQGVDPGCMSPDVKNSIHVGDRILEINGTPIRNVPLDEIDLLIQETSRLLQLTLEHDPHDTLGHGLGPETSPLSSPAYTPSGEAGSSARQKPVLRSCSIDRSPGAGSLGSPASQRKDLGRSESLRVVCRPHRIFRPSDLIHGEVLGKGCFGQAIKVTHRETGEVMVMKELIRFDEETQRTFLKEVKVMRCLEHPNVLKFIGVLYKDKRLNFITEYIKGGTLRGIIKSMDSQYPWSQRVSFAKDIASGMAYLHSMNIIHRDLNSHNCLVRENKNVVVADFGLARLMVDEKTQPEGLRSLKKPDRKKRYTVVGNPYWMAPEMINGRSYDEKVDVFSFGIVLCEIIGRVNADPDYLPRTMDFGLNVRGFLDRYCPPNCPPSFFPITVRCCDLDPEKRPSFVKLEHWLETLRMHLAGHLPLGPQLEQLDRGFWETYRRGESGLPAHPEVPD
UniProt P53671: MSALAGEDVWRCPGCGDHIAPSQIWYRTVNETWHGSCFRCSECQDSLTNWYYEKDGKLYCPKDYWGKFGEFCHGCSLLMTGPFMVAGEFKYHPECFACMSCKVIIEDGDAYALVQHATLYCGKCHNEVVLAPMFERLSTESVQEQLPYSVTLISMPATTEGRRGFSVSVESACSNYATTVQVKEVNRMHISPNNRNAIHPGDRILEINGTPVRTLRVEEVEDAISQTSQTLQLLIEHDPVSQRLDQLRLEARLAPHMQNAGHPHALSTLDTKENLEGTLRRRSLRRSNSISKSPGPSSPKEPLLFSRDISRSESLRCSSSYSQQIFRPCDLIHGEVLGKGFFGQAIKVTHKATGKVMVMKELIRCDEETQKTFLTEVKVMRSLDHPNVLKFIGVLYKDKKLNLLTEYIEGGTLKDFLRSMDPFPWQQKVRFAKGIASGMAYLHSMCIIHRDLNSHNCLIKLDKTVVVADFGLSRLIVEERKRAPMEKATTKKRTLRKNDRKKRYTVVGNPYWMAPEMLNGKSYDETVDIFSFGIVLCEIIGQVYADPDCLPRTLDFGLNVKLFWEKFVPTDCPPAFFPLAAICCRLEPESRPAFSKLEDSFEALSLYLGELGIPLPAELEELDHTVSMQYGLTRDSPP
UniProt Q8IWU2: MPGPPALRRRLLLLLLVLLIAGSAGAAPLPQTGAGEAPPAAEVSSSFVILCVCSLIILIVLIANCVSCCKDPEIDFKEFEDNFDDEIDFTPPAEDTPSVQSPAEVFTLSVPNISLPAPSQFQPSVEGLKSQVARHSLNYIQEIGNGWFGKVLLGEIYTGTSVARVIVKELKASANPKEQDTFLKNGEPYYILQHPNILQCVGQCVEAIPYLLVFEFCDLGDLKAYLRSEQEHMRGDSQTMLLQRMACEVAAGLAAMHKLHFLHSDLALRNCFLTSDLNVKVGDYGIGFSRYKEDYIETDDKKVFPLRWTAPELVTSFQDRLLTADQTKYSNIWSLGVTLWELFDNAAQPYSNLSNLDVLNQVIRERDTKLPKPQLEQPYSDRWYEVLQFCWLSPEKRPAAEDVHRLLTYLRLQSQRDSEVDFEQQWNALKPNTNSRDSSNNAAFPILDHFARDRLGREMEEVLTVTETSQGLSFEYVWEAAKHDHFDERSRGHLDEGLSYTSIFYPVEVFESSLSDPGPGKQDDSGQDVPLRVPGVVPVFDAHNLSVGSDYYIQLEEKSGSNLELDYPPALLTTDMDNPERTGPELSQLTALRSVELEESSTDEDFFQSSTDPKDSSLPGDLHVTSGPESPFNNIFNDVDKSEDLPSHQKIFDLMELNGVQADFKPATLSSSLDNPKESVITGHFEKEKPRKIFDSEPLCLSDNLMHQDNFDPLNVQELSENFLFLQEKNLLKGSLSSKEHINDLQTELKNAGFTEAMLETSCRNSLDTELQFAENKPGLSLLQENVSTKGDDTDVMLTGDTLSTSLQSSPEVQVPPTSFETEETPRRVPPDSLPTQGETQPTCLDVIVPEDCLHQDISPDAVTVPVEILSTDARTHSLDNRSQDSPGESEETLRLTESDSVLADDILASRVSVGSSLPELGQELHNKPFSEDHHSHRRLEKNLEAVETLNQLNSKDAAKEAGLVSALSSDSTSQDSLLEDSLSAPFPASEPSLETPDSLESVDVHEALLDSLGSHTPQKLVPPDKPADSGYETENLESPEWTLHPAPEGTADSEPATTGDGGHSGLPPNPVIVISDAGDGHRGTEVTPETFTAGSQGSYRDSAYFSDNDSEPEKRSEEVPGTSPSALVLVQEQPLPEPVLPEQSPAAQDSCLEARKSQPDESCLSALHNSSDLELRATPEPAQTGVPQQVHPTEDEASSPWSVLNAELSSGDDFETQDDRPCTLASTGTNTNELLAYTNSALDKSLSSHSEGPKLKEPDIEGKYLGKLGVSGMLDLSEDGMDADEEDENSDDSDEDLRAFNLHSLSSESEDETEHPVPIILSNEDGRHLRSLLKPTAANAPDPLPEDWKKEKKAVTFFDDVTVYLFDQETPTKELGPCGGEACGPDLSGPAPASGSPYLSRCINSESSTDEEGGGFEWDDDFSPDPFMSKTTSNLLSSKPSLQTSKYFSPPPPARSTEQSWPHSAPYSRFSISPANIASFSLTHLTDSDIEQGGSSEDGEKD
UniProt P07948: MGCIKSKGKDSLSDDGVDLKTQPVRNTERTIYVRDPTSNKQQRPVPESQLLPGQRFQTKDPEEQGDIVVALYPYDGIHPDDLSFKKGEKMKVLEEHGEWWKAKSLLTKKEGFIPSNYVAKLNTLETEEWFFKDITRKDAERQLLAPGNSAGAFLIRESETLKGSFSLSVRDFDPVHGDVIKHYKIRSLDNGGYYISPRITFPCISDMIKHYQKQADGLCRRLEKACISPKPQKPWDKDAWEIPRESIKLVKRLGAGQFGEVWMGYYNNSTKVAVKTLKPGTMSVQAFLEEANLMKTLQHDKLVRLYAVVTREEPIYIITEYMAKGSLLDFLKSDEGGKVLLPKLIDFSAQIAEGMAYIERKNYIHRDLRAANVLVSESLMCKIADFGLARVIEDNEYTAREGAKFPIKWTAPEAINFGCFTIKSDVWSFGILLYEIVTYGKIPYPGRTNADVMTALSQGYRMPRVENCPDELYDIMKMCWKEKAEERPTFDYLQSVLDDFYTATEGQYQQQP
UniProt Q16620, whole entry, looked up: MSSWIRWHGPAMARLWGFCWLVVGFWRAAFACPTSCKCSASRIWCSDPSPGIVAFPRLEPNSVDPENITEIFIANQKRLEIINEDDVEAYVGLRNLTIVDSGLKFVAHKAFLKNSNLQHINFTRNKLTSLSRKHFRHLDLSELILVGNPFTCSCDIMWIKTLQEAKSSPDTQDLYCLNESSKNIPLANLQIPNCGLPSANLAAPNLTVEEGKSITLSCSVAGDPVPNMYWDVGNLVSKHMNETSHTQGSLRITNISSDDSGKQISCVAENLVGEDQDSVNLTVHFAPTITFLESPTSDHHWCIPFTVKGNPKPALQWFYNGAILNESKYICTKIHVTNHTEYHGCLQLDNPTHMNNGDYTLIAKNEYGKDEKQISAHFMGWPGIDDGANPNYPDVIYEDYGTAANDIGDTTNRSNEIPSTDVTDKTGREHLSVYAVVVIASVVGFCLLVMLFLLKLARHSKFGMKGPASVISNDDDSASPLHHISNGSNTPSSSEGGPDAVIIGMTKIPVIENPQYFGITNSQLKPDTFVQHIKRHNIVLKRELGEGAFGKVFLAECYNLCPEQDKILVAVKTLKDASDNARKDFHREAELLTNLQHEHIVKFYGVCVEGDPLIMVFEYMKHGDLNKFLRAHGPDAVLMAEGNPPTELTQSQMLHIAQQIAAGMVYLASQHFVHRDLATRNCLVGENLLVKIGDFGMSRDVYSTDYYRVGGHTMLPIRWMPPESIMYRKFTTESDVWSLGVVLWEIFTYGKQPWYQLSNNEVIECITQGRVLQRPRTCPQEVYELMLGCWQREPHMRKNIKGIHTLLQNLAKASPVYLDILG

Measured: number of time points

Cc1ccc(CNC(=O)N2CCC[C@]3(CCN(Cc4ccc(Cl)c(Cl)c4)C3)C2)cc1 (10 µM)
0: all assays above

Cc1cccc(-c2[nH]c(C(C)(C)C)nc2-c2ccc3c(c2)OCO3)n1 (2.5 µM)
0: all assays above

O=c1cc(N2CCOCC2)oc2c1ccc1ccccc12 (2 µM)
0: all assays above

C[C@@]12CCc3occc3[C@H]1CC[C@@]13C[C@@H](CC[C@H]12)[C@@](O)(CO)C3 [Cafestol] (10 µM)
0: all assays above

C[C@@H](N)COc1ccc(-c2cnc3ccc(N[C@H](C)c4cccc(F)c4)nn23)cc1 [Taletrectinib] (2.5 µM)
0: all assays above

CN(C)C(=O)c1cc2cnc(Nc3ccc(NC(=O)C4(C(=O)Nc5ccc(F)cc5)CC4)cc3)nc2n1C1CCCC1 (2 µM)
5: [3]
0: all other assays above

C1=N/C2=N/c3ccc(OCCN4CCCC4)c(c3)COC/C=C/COCc3cccc(c3)C(=C1)N2 [Pacritinib] (2.5 µM)
0: all assays above

Nc1nc2c(ncn2COCCO)c(=O)[nH]1 [Acyclovir] (10 µM)
0: all assays above

C[C@H](Nc1ccc2c(c1)OCCn1cc(N3C(=O)OC[C@H]3C(F)F)nc1-2)C(N)=O (10 µM)
0: all assays above

O=c1[nH]nc(Sc2ncc([N+](=O)[O-])s2)n1-c1ccc2c(c1)OCCO2 (2.5 µM)
0: all assays above

COC(=O)[C@]1(C)CC[C@]2(C(=O)O[C@@H]3O[C@H](CO)[C@@H](O)[C@H](O)[C@H]3O)CC[C@]3(C)C(=CC[C@@H]4[C@@]5(C)C[C@H](O)[C@H](O[C@@H]6OC[C@@H](O[C@@H]7O[C@H](CO)[C@@H](O)[C@H](O)[C@H]7O)[C@H](O)[C@H]6O)[C@@](C)(CO)C5CC[C@]43C)[C@H]2C1 (stereo not given in full) [Esculentoside H] (10 µM)
0: all assays above

CC(C)[C@H](CO)Nc1nc(Nc2ccc(C(=O)O)c(Cl)c2)c2ncn(C(C)C)c2n1 [Purvalanol B] (10 µM)
0: all assays above

Nc1n[nH]c(N)c1N=Nc1ccc(O)cc1 (10 µM)
0: all assays above

CC(C)(C)S(=O)(=O)c1cc2c(Nc3ccc4scnc4c3)ccnc2cc1OCCOCCOCCOCCOCC(=O)Nc1cccc2c1CN(C1CCC(=O)NC1=O)C2=O (stereo not given) [PROTAC RIPK degrader-6] (10 µM)
0: all assays above

As a short view, 2 of the compounds above:
COC(=O)[C@]1(C)CC[C@]2(C(=O)O[C@@H]3O[C@H](CO)[C@@H](O)[C@H](O)[C@H]3O)CC[C@]3(C)C(=CC[C@@H]4[C@@]5(C)C[C@H](O)[C@H](O[C@@H]6OC[C@@H](O[C@@H]7O[C@H](CO)[C@@H](O)[C@H](O)[C@H]7O)[C@H](O)[C@H]6O)[C@@](C)(CO)C5CC[C@]43C)[C@H]2C1 (stereo not given in full) [Esculentoside H] (10 µM)
0: all assays above

CC(C)[C@H](CO)Nc1nc(Nc2ccc(C(=O)O)c(Cl)c2)c2ncn(C(C)C)c2n1 [Purvalanol B] (10 µM)
0: all assays above

Additional structures.

COc1cccc(Nc2ncnn3ccc(CN4CC[C@@H](N)[C@H](O)C4)c23)c1 (2.5 µM)
1: [1] | [19]
2: [9]
4: [5]
0: all other assays above

Cc1cc(F)c(Nc2ncnc3cc(OCc4ccccc4)ccc23)cc1O (10 µM)
0: all assays above

CC(C)(C)c1ccc(C(=O)Nc2cn3cc(-n4ccnc4)ccc3n2)cc1 (10 µM)
2: [9]
0: all other assays above

C[C@H](CC[C@@H](O)C(C)(C)O)[C@H]1CC[C@@]2(C)[C@@H]3CC=C4[C@@H](CC[C@H](O)C4(C)C)[C@]3(C)[C@H](O)C[C@]12C [Mogrol] (10 µM)
0: all assays above

CC[C@H](C)[C@@H]1NC(=O)[C@@H]2CCCN2C(=O)[C@@H]2CCCN2C(=O)[C@@H]2CCCN2C(=O)[C@H](CC(C)C)NC(=O)CNC(=O)CNC(=O)[C@H](Cc2ccccc2)NC1=O [Heterophyllin B] (10 µM)
0: all assays above

C[C@]1(O)C[C@@](N)(c2ccc(-c3nc4n(c3-c3ccccc3)COc3ccncc3-4)cc2)C1 [TAS-117 (hydrochloride)] (10 µM)
0: all assays above

N#Cc1c[nH]c2ccc(-c3ccc(-c4c(O)cccc4O)cc3)cc12 (10 µM)
0: all assays above

CCc1nc(C(N)=O)c(Nc2ccc(N3CCC(N4CCN(C)CC4)CC3)c(OC)c2)nc1NC1CCC(OC)CC1 (stereo not given) [EML4-ALK kinase inhibitor 1] (2.5 µM)
0: all assays above

CNS(=O)(=O)C[C@H]1CC[C@H](N(C)c2[nH]cnc3nccc2-3)CC1 [Oclacitinib (maleate)] (10 µM)
0: all assays above

O=C(Nc1cc(Cl)cc(Cl)c1)Nc1cc(Cl)cc(Cl)c1 (10 µM)
0: all assays above
